This is an account of results in paper PMC6181423.

Protein sequences, listed by entry. Tags and fused reporters are not part of them. Lines headed by an entry give the natural chain unless they say otherwise; changes in a name come on top.
UniProt P52286: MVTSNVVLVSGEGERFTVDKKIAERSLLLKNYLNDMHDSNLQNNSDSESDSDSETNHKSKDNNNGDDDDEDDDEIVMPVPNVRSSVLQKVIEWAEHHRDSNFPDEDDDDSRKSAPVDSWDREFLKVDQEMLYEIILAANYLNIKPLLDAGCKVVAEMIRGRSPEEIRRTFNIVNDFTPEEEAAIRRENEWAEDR
UniProt P38285: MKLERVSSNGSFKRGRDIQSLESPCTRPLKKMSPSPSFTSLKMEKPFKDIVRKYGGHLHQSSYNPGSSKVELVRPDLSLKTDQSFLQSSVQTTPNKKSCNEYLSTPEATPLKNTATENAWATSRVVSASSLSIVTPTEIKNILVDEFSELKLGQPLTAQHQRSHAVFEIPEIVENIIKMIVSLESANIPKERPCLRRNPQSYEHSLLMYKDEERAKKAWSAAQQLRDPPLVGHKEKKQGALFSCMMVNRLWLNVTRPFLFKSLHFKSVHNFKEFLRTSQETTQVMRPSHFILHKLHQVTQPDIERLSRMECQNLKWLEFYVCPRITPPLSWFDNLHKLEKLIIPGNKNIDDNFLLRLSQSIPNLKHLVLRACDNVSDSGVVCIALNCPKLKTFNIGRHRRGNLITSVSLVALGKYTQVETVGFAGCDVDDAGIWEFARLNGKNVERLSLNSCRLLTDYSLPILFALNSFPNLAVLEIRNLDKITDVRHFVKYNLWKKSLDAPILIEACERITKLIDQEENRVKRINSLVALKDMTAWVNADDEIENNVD

Changes are numbered by the printed parent chain. These are yes or no findings as the source states them, for the method shown. For some of these results: Binding calls can cover weak binding; strength is not graded here. For some of these results: Sequences can lack the tags named with a protein. For some of these results: Binding seen in cells or lysates may run through a third protein.

Assay [1] has as its target T1, Cdc53-Ha (S. cerevisiae) (UniProt Q12018).
T1 sequence: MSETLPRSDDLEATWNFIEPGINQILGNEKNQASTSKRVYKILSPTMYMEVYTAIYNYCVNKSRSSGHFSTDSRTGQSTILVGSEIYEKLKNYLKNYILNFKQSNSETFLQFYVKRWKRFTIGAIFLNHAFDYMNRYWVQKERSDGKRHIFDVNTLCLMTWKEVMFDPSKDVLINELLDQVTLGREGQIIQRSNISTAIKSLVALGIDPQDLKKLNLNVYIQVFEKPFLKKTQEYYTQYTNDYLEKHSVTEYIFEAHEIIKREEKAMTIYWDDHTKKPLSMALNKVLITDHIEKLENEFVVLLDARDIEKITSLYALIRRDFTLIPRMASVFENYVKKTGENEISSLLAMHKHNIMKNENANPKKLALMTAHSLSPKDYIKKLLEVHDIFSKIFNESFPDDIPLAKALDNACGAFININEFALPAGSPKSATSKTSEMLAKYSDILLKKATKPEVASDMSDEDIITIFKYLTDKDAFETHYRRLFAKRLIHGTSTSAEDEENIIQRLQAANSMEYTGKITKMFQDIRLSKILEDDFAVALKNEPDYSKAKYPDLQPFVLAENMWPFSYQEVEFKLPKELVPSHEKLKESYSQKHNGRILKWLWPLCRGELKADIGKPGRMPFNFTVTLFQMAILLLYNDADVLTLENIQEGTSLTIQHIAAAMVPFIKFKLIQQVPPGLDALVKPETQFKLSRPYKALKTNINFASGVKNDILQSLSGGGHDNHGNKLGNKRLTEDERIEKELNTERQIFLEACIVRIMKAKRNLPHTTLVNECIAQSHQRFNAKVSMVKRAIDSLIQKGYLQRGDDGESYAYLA
Briefly: SEC; cell lysate of YL1C passed over Superdex 200 in cold PBS (4°C), 0.5 ml/min, 0.5 ml fractions analysed by western blot. Background: In gel filtration, larger molecules generally elute earlier.

Assay [2] concerns the target Skp1-Myc (S. cerevisiae) (UniProt P52286). The description is as above.
For assay [3], the target named is T1, Cdc53-Ha (S. cerevisiae). Briefly: co-IP; whole cell extracts of YL1C strains grown in YPD to OD600 1.0; dynabeads protein G with antibody; IP lysis buffer 50 mM HEPES-KOH pH 7.5, 140 mM NaCl, 1 mM EDTA, 1% Triton X-100; for Cdc15/Tem1 in YL1C, YL1C Δamn1 and with overexpressed Amn1^368D or Amn1^368V.
The target of assay [4] is Skp1-Myc (S. cerevisiae) (UniProt P52286). The assay is described as above.
A further assay deals with T2, Tem1 (S. cerevisiae) (UniProt P38987).
T2 sequence: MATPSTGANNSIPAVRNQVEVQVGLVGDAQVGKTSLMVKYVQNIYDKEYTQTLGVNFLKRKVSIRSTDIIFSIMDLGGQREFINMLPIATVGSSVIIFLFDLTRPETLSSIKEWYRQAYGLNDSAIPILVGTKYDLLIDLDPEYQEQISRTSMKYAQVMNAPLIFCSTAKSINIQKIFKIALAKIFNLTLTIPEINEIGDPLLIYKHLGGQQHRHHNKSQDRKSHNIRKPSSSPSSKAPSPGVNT
Described as above.

Assay [5] addresses T3, Ace2* (11-residue domain … of Ace2 replaced by … of Swi5), Myc-tagged (S. cerevisiae) (UniProt P21192).
T3 sequence: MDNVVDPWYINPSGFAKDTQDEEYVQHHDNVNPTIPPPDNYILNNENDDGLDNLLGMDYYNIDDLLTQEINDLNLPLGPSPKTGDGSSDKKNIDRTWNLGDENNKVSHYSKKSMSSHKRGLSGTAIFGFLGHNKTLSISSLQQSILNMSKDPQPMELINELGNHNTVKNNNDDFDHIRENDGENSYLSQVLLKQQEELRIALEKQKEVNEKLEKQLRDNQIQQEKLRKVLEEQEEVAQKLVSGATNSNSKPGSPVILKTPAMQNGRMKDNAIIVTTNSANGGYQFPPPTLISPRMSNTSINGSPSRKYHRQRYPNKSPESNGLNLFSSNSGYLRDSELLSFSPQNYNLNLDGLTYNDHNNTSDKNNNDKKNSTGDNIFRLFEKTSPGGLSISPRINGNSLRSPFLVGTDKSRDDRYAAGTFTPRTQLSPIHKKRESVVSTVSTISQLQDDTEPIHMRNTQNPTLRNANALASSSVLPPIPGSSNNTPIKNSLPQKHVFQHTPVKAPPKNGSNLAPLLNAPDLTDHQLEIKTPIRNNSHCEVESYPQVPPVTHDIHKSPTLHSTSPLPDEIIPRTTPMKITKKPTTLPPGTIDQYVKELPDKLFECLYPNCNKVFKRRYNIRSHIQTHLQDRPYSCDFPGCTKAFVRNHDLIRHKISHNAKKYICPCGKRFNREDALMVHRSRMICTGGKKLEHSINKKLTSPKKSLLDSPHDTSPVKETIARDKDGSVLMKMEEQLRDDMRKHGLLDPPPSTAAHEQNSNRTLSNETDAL
Briefly: co-IP; Myc-Ace2 (GAL promoter, galactose-induced, MG132 20 uM for one hour) precipitated from 50 mg whole cell extract with anti-Myc on dynabeads protein G, 1 hour at room temperature; IP lysis buffer 50 mM HEPES-KOH pH 7.5, 140 mM NaCl, 1 mM EDTA, 1% Triton X-100; blots with anti-Myc and anti-Flag.

The target of assay [6] is T4, Myc-Ace2 expressed from the GAL promoter in YL1C (S. cerevisiae) (UniProt P21192).
T4 sequence: T3 sequence with I70L, N71R, N74D, L75I, G78V
The assay is described as above.

Turning to “Amn1^368D from S. cerevisiae strain YL1C, Flag-tagged (from UniProt P38285)”, the binding entry with Cdc53-Ha (S. cerevisiae) [1] is listed as “binds”; in the assay with Skp1-Myc (S. cerevisiae) [2], “binds”; with Cdc53-Ha (S. cerevisiae) [3], “binds”; in the assay with Skp1-Myc (S. cerevisiae) [4] it was “binds”; with Tem1 (S. cerevisiae), “binds”; in assay [5] it was “no binding”. Moreover, the binding result in assay [6] is given as “binds”.
